Results reported in patent US20130259829A1, “CLIP INHIBITORS AND METHODS OF MODULATING IMMUNE FUNCTION” (The Regents of the University of Colorado, A Body Corporate, priority 2008, published 2013).
For at least one compound, name, drawing or mass did not settle the structure.

Tested on: B cell surface CLIP
Experiment: B cell surface CLIP after 2-Deoxyglucose and dichloroacetate (FIG. 4)
Assay type: cell-based

O=C(O)C(Cl)Cl [dichloroacetate]
B cell surface CLIP: affects B cell surface CLIP
